The list shows only some results of the screen, not a fair sample: it is rich in T/C values a quarter to a half above the control, in often repeated tests (any T/C) and in doses without a T/C. Other doses and runs of a compound stand elsewhere. T/C is the treated group as % of the vehicle group. Some doses have a count of surviving animals in place of a T/C: the source files T/C as zero there, which appears to mark a toxic dose or a test without result, not a measured value. Some doses without a T/C left all or most animals alive at the check, yet need not have been tolerated: the source hardly ever lists a survival T/C far under the control, and the zero likely stands for such cases as well. Survivors were counted at the toxicity check, usually on the fifth day, unless a day is given; later deaths do not show. Schedules are NCI's codes, taken here to give the interval after Q, in days (D) or hours (H), and the number of doses after X. Counts like (3×) count equal records among those shown. Some doses were run more than once; the values are given in rising order. Where survival is the endpoint, the PubChem record calls one and a half times the control and up active, and a quarter to a half above the control has no call in these data; cut-offs in other NCI protocols can differ.
Tested on: P388 leukemia ip, CD2F1 mice, survival T/C
Experiment: NCI In Vivo Anticancer Drug Screen. Data for tumor model P388 Leukemia (intraperitoneal) in CD2F1 (CDF1) mice
Settings: T/C endpoint: median survival time, higher T/C = longer survival
[1] = dose: 50.0 mg/kg/injection, schedule: Q01DX009 (ip), vehicle: saline with Tween-80
[2] = dose: 100.0 mg/kg/injection, schedule: Q01DX009 (ip), vehicle: saline with Tween-80
[3] = dose: 200.0 mg/kg/injection, schedule: Q01DX009 (ip), vehicle: saline with Tween-80
[4] = dose: 25.0 mg/kg/injection, schedule: Q01DX009 (ip), vehicle: saline with Tween-80
[5] = dose: 200.0 mg/kg/injection, schedule: Q01DX005 (ip), vehicle: Klucel (hydroxypropylcellulose) (HPC)
[6] = dose: 50.0 mg/kg/injection, schedule: Q01DX005 (ip), vehicle: Klucel (hydroxypropylcellulose) (HPC)
[7] = dose: 100.0 mg/kg/injection, schedule: Q04DX003 (ip), vehicle: saline
[8] = dose: 120.0 mg/kg/injection, schedule: Q01DX005 (ip), vehicle: saline with Tween-80
[9] = dose: 240.0 mg/kg/injection, schedule: Q01DX005 (ip), vehicle: saline with Tween-80
[10] = dose: 60.0 mg/kg/injection, schedule: Q01DX005 (ip), vehicle: saline with Tween-80
[11] = dose: 200.0 mg/kg/injection, schedule: Q01DX005 (ip), vehicle: saline with Tween-80
[12] = dose: 100.0 mg/kg/injection, schedule: Q01DX005 (ip), vehicle: Klucel (hydroxypropylcellulose) (HPC)

For `CCCN=C(N)N=C(N)N`, the survivor count [1] was 5 of 6, the survivor count [2] was 5 of 6 and the survivor count [3] was 3 of 6.

With `O=C1C2C3C=CC(C2C(=O)N1CN1CCOCC1)C1C2C(=O)N(CN4CCOCC4)C(=O)C2C31` (stereo unspecified) the T/C [4] was 125 % of control, the T/C [1] was 141 and 148 % of control and the survivor count [3] was 3 of 6 and 4 of 6.

With `COc1ccc(S(N)(=O)=O)cc1C(=O)NCCN1CCN(c2cccc(C(F)(F)F)c2)CC1` the survivor count [5] was 5 of 6.

With `CCCCCC[Se][Se]CCCCCC` the survivor count [6] was 2 of 6.

`CCCCCCCCCCCCCCCC[N+](C)(C)CCN=[N+]=[N-]` was tested, and the survivor count [1] was 1 of 6.

For `CCCCSc1ccc(NN=O)nc1`, the T/C (dose: 6.25 mg/kg/injection, schedule: Q01DX009 (ip), vehicle: water) was 142 % of control, the survivor count (dose: 12.5 mg/kg/injection, schedule: Q01DX009 (ip), vehicle: water) was 6 of 6 and the survivor count (dose: 25.0 mg/kg/injection, schedule: Q01DX009 (ip), vehicle: water) was 0 of 6 and 4 of 6. The survivor count (dose: 50.0 mg/kg/injection, schedule: Q01DX009 (ip), vehicle: water) was 1 of 6.

In the case of `OCCOCCN1CCN(CCCN2c3ccccc3Sc3ccc(C(F)(F)F)cc32)CC1`, the T/C (dose: 50.0 mg/kg/injection, schedule: Q04DX003 (ip), vehicle: saline) is reported as 132 % of control and the survivor count [7] is reported as 5 of 6.

`CCC[n+]1noc(N)n1` was tested, and the survivor count (dose: 200.0 mg/kg/injection, schedule: Q01DX009 (ip), vehicle: water) was 3 of 3 and the survivor count (dose: 400.0 mg/kg/injection, schedule: Q01DX009 (ip), vehicle: water) was 3 of 3.

With `CCOC(=O)C(=CNc1ccc2n[nH]nc2c1)C(=O)OCC` the survivor count (dose: 200.0 mg/kg/injection, schedule: Q01DX009 (ip), vehicle: Klucel (hydroxypropylcellulose) (HPC)) was 2 of 6.

With `CN(C)c1cccc2c(S(=O)(=O)NCCCCCCCCCCCCN)cccc12` the survivor count (dose: 200.0 mg/kg/injection, schedule: Q01DX001 (ip), vehicle: saline + Tween-80 + alcohol) was 6 of 6 and the survivor count (dose: 400.0 mg/kg/injection, schedule: Q01DX001 (ip), vehicle: saline + Tween-80 + alcohol) was 4 of 6.

For `CC1C/C(=C\N=[N+]=[N-])C(=O)O1` (stereo unspecified), the survivor count [8] was 0 of 6 and the survivor count [9] was 0 of 6.

`c1ccc(C(=C2C(=C(c3ccccc3)c3ccccc3)c3nc4ccccc4nc32)c2ccccc2)cc1` was tested, and the survivor count (dose: 30.0 mg/kg/injection, schedule: Q01DX005 (ip), vehicle: saline with Tween-80) was 6 of 6 (2×), the survivor count [10] was 6 of 6 (2×) and the survivor count [8] was 6 of 6.

In the case of `CN1CCC(CC2CCCCN2)CC1` (stereo unspecified), the survivor count (dose: 100.0 mg/kg/injection, schedule: Q01DX009 (ip), vehicle: distilled water + Tween-80) is reported as 3 of 6 and the survivor count (dose: 200.0 mg/kg/injection, schedule: Q01DX009 (ip), vehicle: distilled water + Tween-80) is reported as 0 of 6.

In the case of `O=C1SCCC1CO` (stereo unspecified), the survivor count [7] is reported as 1 of 6.

For `Cc1ccc(-c2cn3nc(-c4ccc5c(c4)OCO5)sc3n2)cc1`, the survivor count [10] was 6 of 6 and the survivor count [9] was 6 of 6.

For `CC1CCC(C)N1P(=O)(N1CC1)N1CC1` (stereo unspecified), the T/C (dose: 12.5 mg/kg/injection, schedule: Q04DX003 (ip), vehicle: saline) was 133 % of control, the survivor count (dose: 50.0 mg/kg/injection, schedule: Q01DX009 (ip), vehicle: saline) was 4 of 6 and the survivor count [7] was 6 of 6.

`COc1cc2c(c(OC)c1OC)-c1ccc(OC)c(=O)cc1[C@@H](NC(=O)CF)CC2` was tested, and the T/C (dose: 46.8 micrograms/kg/injection, schedule: Q01DX009 (ip), vehicle: saline) was 140 % of control, the T/C (dose: 62.5 micrograms/kg/injection, schedule: Q04DX003 (ip), vehicle: saline) was 145 % of control and the T/C (dose: 125.0 micrograms/kg/injection, schedule: Q04DX003 (ip), vehicle: saline) was 140 % of control. The survivor count (dose: 750.0 micrograms/kg/injection, schedule: Q01DX009 (ip), vehicle: saline) was 6 of 6 and the survivor count (dose: 1000.0 micrograms/kg/injection, schedule: Q04DX003 (ip), vehicle: saline) was 6 of 6.

For `O=C(CS(=O)(=O)O)c1ccccc1`, the survivor count (dose: 200.0 mg/kg/injection, schedule: Q04DX002 (ip), vehicle: saline with Tween-80) was 0 of 6 and the survivor count (dose: 400.0 mg/kg/injection, schedule: Q04DX002 (ip), vehicle: saline with Tween-80) was 0 of 6.

With `COc1cc(OC)c2c(c1)OC(=O)C(C(C)=O)C2` (stereo unspecified) the survivor count [11] was 0 of 6.

In the case of `OC(CC1(O)C(F)(F)C(F)(F)C1(F)F)c1ccccc1` (stereo unspecified), the survivor count (dose: 400.0 mg/kg/injection, schedule: Q04DX003 (ip), vehicle: saline with Tween-80) is reported as 4 of 6.

With `COC(=O)c1c(C(=O)OC)c(Nc2ccccc2)c2ccccc2c1O` the survivor count [6] was 1 of 6, the survivor count [12] was 0 of 6 and the survivor count [5] was 0 of 6.

`CCN(CC)CCOC(=O)Cc1ccc2c(=O)cc(-c3ccc(C)cc3)oc2c1` was tested, and the T/C [12] was 138 % of control and the survivor count [5] was 1 of 6.

With `CCOc1ccc(/C=C(\C(=O)c2ccccc2)S(=O)(=O)c2ccc(OC)cc2)cc1OC` the survivor count [11] was 6 of 6.

`NC(N)=Nc1c(N)ncnc1N` was tested, and the survivor count [8] was 6 of 6.

For `NC(=O)SCC(N)C(=O)O` (stereo unspecified), the T/C (dose: 100.0 mg/kg/injection, schedule: Q01DX009 (ip), vehicle: saline) was 125 and 129 % of control, the T/C (dose: 200.0 mg/kg/injection, schedule: Q01DX009 (ip), vehicle: saline with Tween-80, evaluated on day 20) was 128 % of control and the T/C (dose: 200.0 mg/kg/injection, schedule: Q01DX009 (ip), vehicle: saline with Tween-80, evaluated on day 30) was 132 % of control. For the same compound, the T/C (dose: 200.0 mg/kg/injection, schedule: Q01DX009 (ip), vehicle: saline) was 127 and 148 % of control, the T/C (dose: 200.0 mg/kg/injection, schedule: Q01DX009 (ip), vehicle: suspension in saline) was 125 % of control and the survivor count (dose: 400.0 mg/kg/injection, schedule: Q01DX009 (ip), vehicle: saline with Tween-80) was 6 of 6. The T/C (dose: 400.0 mg/kg/injection, schedule: Q01DX009 (ip), vehicle: suspension in saline) was 143 % of control, the survivor count (dose: 600.0 mg/kg/injection, schedule: Q01DX009 (ip), vehicle: saline with Tween-80) was 5 of 6 and the survivor count (dose: 600.0 mg/kg/injection, schedule: Q01DX009 (ip), vehicle: saline) was 3 of 6. The survivor count (dose: 600.0 mg/kg/injection, schedule: Q01DX009 (ip), vehicle: suspension in saline) was 5 of 6.

With `C/C(=N\OCC(O)CNCCSCc1ccccc1)c1ccccc1Cl` (stereo unspecified) the survivor count (dose: 60.0 mg/kg/injection, schedule: Q01DX005 (ip), vehicle: Klucel (hydroxypropylcellulose) (HPC)) was 3 of 6 and the survivor count (dose: 240.0 mg/kg/injection, schedule: Q01DX005 (ip), vehicle: Klucel (hydroxypropylcellulose) (HPC)) was 2 of 6.

In the case of `O=c1[nH]oc2c1CCNC2`, the survivor count (dose: 400.0 mg/kg/injection, schedule: Q04DX003 (ip), vehicle: saline) is reported as 1 of 6.

For `CN1C2C=CC1c1c(C3=NC(C)(C)CO3)cccc12` (stereo unspecified), the survivor count (dose: 200.0 mg/kg/injection, schedule: Q01DX005 (ip), vehicle: saline) was 3 of 6.

In the case of `N=C(N)c1nn(C2OC(CO)C(O)C2O)c2nc[nH]c(=O)c12` (stereo unspecified), the survivor count (dose: 50.0 mg/kg/injection, schedule: Q01DX005 (ip), vehicle: saline with Tween-80) is reported as 5 of 6 and the survivor count (dose: 100.0 mg/kg/injection, schedule: Q01DX005 (ip), vehicle: saline with Tween-80) is reported as 0 of 6.

With `NC1(C(=O)O)CCCc2ccc(N(CCCl)CCCl)cc21` (stereo unspecified) the T/C (dose: 2.5 mg/kg/injection, schedule: Q04DX003 (ip), vehicle: saline) was 140 % of control, the T/C [4] was 144 % of control and the survivor count [1] was 3 of 6. For the same compound, the survivor count (dose: 50.0 mg/kg/injection, schedule: Q04DX003 (ip), vehicle: saline with Tween-80) was 5 of 6 and the survivor count [2] was 2 of 6.

With `CC1=COC2CCCCC2O1` (stereo unspecified) (tested in a mixture with another compound) the T/C (dose: 100.0 mg/kg/injection, schedule: Q01DX009 (ip), vehicle: acetone) was 133 % of control.
